Reference: publication PMC5119886, “POWERDRESS interacts with HISTONE DEACETYLASE 9 to promote aging in Arabidopsis” (eLife, 2016)
Where two headings read alike, the source gives them in different places. These are yes or no findings as the source states them, for the method shown. Binding seen in cells or lysates may run through a third protein. These calls come from enrichment with a bait or labelling near it, and not all partners need be listed. Sequences can lack the tags named with a protein. Blank lines part the entries; values can stand above or below the molecule they belong to.

Sequences of proteins named here, by UniProt entry; tags and fusion partners are left off.
UniProt O22130: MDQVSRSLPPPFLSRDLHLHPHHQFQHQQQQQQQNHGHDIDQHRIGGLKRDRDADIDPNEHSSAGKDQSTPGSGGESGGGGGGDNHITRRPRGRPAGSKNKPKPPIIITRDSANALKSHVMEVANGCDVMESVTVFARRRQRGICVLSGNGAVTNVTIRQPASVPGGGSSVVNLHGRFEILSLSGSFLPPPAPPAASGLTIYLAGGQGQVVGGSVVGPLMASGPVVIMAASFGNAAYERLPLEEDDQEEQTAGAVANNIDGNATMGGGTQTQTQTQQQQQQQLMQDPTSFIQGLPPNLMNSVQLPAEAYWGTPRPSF

Tests used:
[1] = target: T1, HDA9-3xFLAG (HISTONE … 9, pHDA9::HDA9-3xFLAG/hda9) (Arabidopsis thaliana) (UniProt Q8H0W2); experiment: affinity purification with mass spectrometry; about 20 g leaves of HDA9-FLAG, PWR-FLAG or WT (negative control) plants; extract in IP Binding Buffer (50 mM Tris-HCl pH 8, 150 mM NaCl, 5 mM MgCl2, 5% glycerol, 0.1% NP-40, 1 mM DTT); anti-FLAG M2 magnetic beads, 4°C, 3 hr; eluted with 3xFLAG peptide; Orbitrap MS
T1 sequence: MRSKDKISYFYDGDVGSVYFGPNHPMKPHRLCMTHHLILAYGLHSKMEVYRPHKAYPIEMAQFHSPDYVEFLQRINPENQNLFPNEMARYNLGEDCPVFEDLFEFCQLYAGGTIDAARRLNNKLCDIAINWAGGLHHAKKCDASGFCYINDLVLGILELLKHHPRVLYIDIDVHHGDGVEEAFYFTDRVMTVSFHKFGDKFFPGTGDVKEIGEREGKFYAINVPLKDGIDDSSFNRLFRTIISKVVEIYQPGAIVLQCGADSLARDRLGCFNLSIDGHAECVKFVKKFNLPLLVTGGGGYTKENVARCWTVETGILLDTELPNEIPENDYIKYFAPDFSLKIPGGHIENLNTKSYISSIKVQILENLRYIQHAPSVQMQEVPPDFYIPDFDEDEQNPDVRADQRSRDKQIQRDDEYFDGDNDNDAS

[2] = target: T1, HDA9-3xFLAG (HISTONE … 9, pHDA9::HDA9-3xFLAG/hda9) (Arabidopsis thaliana); experiment: as above; remark: listed apart in the source

binding [1]: binds
Molecule: AHL22, endogenous (from UniProt O22130 1-317)

binding [2]: binds
B1: GST-WRKY53 (GST tagged full-length WRKY53) (natural protein, Arabidopsis thaliana, UniProt Q9SUP6 1-324, looked up)
chain: MEGRDMLSWEQKTLLSELINGFDAAKKLQARLREAPSPSSSFSSPATAVAETNEILVKQIVSSYERSLLLLNWSSSPSVQLIPTPVTVVPVANPGSVPESPASINGSPRSEEFADGGGSSESHHRQDYIFNSKKRKMLPKWSEKVRISPERGLEGPQDDVFSWRKYGQKDILGAKFPRSYYRCTHRSTQNCWATKQVQRSDGDATVFEVTYRGTHTCSQAITRTPPLASPEKRQDTRVKPAITQKPKDILESLKSNLTVRTDGLDDGKDVFSFPDTPPFYNYGTINGEFGHVESSPIFDVVDWFNPTVEIDTTFPAFLHESIYY
notes: WRKY53 transcription factor, Arabidopsis thaliana; full-length cDNA cloned into pGOOD (pGEX-6P modified by adding a 6XHIS tag at the C terminus); Primers are in Supplementary file 1; source: E. coli, induced with 200 uM IPTG for three hours at 37°C, purified
